## Screening data, single-dose tests

Protein sequences, listed by entry. Tags and fused reporters are not part of them. Residues count along the entry.
UniProt P9WFT3, whole entry: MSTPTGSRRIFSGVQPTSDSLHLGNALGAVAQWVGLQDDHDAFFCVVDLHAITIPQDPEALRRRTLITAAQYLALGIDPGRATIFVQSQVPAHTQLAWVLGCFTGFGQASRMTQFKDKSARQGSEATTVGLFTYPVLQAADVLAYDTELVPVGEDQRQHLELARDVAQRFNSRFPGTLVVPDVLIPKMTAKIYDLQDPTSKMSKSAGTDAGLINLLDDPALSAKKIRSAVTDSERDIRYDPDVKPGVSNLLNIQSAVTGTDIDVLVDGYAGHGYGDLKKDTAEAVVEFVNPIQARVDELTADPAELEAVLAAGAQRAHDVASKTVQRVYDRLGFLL
UniProt I6X8D2, whole entry: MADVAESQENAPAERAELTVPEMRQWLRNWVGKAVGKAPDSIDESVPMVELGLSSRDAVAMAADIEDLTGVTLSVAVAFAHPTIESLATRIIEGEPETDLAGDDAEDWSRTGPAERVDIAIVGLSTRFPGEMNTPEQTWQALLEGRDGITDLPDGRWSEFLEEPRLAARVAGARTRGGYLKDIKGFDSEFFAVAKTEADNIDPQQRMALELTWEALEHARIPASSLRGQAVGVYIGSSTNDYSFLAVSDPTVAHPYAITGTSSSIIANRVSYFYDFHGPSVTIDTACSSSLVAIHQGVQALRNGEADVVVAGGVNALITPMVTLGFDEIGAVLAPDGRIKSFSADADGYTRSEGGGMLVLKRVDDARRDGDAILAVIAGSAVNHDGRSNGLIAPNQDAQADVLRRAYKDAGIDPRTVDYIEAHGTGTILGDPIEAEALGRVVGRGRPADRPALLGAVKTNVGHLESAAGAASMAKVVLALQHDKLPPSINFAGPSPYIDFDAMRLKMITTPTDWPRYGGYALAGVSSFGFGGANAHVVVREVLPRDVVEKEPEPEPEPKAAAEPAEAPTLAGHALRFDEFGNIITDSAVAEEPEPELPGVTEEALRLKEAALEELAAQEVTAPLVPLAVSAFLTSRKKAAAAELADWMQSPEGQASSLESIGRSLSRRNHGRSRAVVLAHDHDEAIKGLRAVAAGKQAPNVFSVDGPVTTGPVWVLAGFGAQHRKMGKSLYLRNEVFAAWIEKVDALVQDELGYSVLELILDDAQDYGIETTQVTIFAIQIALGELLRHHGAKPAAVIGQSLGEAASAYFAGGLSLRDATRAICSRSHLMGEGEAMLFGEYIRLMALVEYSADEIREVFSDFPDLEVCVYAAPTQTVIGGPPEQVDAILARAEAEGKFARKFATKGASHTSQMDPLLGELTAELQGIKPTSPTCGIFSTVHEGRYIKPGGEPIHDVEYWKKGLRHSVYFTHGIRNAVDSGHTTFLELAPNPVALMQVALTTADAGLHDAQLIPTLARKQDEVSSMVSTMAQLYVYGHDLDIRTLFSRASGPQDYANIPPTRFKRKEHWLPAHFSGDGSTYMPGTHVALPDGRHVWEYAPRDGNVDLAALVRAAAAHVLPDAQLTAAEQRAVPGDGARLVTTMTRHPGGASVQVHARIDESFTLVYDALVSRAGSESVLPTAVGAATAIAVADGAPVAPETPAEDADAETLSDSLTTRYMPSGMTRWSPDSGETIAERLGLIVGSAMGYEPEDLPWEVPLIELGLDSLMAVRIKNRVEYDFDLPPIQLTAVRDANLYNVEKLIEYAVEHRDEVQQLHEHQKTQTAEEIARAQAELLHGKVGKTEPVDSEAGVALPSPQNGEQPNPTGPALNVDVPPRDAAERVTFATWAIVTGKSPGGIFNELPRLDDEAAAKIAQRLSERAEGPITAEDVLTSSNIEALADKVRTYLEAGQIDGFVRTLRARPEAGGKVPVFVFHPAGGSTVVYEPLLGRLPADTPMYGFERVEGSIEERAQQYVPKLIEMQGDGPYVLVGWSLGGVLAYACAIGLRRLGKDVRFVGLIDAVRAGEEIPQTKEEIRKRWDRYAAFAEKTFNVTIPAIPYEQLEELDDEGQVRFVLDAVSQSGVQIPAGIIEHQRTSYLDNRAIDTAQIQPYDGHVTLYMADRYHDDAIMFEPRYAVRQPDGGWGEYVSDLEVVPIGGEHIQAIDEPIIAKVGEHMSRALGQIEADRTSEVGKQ
UniProt A4I591, 1-473: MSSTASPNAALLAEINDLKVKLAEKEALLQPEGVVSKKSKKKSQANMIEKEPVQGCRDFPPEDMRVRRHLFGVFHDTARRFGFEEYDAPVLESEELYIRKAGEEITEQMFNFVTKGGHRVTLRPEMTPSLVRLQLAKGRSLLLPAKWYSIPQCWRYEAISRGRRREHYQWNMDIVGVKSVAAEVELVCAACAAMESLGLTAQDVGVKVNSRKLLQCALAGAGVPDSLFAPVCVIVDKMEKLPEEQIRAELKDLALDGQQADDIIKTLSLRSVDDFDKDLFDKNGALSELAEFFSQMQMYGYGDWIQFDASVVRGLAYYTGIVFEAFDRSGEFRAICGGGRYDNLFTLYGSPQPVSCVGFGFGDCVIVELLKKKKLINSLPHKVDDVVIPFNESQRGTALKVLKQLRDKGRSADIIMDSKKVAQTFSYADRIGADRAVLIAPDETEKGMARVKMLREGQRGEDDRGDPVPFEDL
UniProt Q8IDJ8, 1-583: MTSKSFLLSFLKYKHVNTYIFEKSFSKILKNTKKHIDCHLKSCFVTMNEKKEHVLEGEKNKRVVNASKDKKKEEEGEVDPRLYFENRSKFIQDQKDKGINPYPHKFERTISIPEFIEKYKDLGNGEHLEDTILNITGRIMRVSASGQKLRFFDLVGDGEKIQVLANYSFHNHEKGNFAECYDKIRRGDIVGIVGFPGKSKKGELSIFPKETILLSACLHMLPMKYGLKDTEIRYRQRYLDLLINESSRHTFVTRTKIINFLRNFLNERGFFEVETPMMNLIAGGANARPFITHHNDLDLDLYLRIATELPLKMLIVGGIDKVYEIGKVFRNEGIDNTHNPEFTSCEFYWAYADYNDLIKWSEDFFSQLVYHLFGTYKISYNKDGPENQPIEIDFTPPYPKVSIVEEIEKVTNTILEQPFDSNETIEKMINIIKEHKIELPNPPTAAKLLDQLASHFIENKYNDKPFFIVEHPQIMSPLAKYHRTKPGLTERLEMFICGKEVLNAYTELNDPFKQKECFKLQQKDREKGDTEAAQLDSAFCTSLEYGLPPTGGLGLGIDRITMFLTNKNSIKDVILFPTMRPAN

From ChEMBL document CHEMBL3988442, “University of Dundee, Small-Polar-MMV Screening Library” (2021).

MtTrpRS: 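Enzyme assay of tryptophanyl-tRNA synthetase; the read-out is not stated. Target: Tryptophan-tRNA ligase, Mycobacterium tuberculosis (UniProt P9WFT3). Concentration: 10 µM. Direction is not recorded; retested compounds ran higher, which suggests that high means inhibition. Of about 65,000 compounds tested this way, about 64 (0.098%) reached 50% or more in at least one test.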
Pks13 thioesterase: 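Enzyme assay of the thioesterase domain of polyketide synthase 13; the read-out is not stated. Target: Polyketide synthase Pks13, Mycobacterium tuberculosis (UniProt I6X8D2). Concentration: 30 µM. The record gives no direction; the compounds picked for IC50 retests had high values, so higher reads as stronger inhibition. Of about 67,000 compounds tested this way, about 300 (0.46%) reached 50% or more in at least one test.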
LiHisRS: 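Enzyme assay of histidyl-tRNA synthetase; the read-out is not stated. Target: Histidine-tRNA ligase, Leishmania infantum (UniProt A4I591). Concentration: 30 µM. The record gives no direction; compounds that gave an IC50 in retests scored well above the rest, so higher reads as stronger inhibition. The assay is labelled LdHisRS but filed under L. infantum. Of about 69,000 compounds tested this way, about 410 (0.6%) reached 50% or more in at least one test.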
PfKRS1: 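Enzyme assay of the cytosolic lysyl-tRNA synthetase in 384-well plates, read by luminescence. Target: Lysine-tRNA ligase, Plasmodium falciparum 3D7 (UniProt Q8IDJ8). Compounds at 30 µM. Higher reads as stronger inhibition, judged from the few compounds that gave an IC50. Of about 69,000 compounds tested this way, about 49 (0.071%) reached 50% or more in at least one test.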

Results are given as percent effect. The record does not define 0% and 100%; most values in the screen are far below 50% and negative numbers occur (in some assays of this library far below -100). This is an unselected part of the compounds tested. A dash means the value is not listed here; it may have been measured.

SMILES	MtTrpRS	Pks13 thioesterase	LiHisRS	PfKRS1
Cc1csc(C2(NC(=O)CCc3ccncc3)CCCC2)n1	-7.787	-4.121	6.306	7.51
CC(C)(CNc1ccccc1S(=O)(=O)C(F)F)N1CCOCC1	-1.3	-7.586	19.18	3.704
CCCS(=O)(=O)N1CCC2(CC1)CN(C(=O)N(C)C)c1ccccc12	-1.274	-12.5	27.63	3.148
O=C(CCc1ccc2c(c1)OCO2)Nc1cccnc1-n1cncn1	-3.774	5.397	-101.7	6.482
CCN1CC2(CC1=O)CN(C(C)=O)CCN(C(=O)NC(C)C)C2 (centres unmarked)	-	-14.27	17.31	4.99
c1cncc(-c2noc(C3CN(Cc4cccs4)C3)n2)c1	0.228	-9.638	12.17	11.06
Cc1nc(CN2CCCc3cc(OC(F)(F)F)ccc32)oc1C	-1.29	-5.92	7.08	1.783
CCC1=NOC(CNCc2cnc(-c3ccccc3C)s2)C1 (centres unmarked)	-5.857	-39.38	61.67	0.815
CN1CCN(c2cc(N3CCCC3CO)ncn2)Cc2ccccc21 (centres unmarked)	-4.801	-1.983	-1.653	-4.781
CN(CCN1CCCCCC1)C(=O)c1cc(CN2CCCC(O)C2)on1 (centres unmarked)	-2.716	-22.97	9.677	5.436
Cc1noc(C2CCCN(C(=O)CCNc3ncccn3)C2)n1 (centres unmarked)	-1.604	-20.34	17.59	0.5957
COCCc1noc(CNC2CCc3nc(C(C)C)nn3C2)n1 (centres unmarked)	-2.58	-18.36	0	-1.939
Cc1ccc(CN2CCC3(CC2)CC3CN(C)Cc2cccnc2)o1 (centres unmarked)	-0.9161	-37.03	14.04	4.693
CN(c1cccnc1N1CCCC1)S(=O)(=O)c1cnn(C)c1	8.583	-7.986	13.7	0.9288
CN(CCC1CCOCC1)[C@@H]1c2ccccc2C2(CCNCC2)[C@H]1O	-1.484	8.032	3.774	-2.28
Cc1nc(CN2CCOCC3(CCCN(c4cnccn4)C3)C2)cs1 (centres unmarked)	-2.929	12.17	17.14	0.6801
O=C(Cn1nnc(-c2ccc(F)cc2)n1)N1CCOCC(O)C1 (centres unmarked)	-1.032	2.705	9.167	-3.901
Cc1nc(C)n(CC2CCCCN2CC(=O)Nc2ccncc2)n1 (centres unmarked)	2.158	-10.23	8.219	0.5217
CCN(CC)C(C)CNC(=O)c1cccnc1Oc1cccnc1 (centres unmarked)	-0.8614	-16.6	16.13	0.1332
CCS(=O)(=O)N1CCc2cc(C(=O)NC)c(NCC3CC3)nc2CC1	-2.49	23.61	15.38	2.942
CCNC(=O)C1CCN(Cc2ccc(C(=O)Nc3cnns3)cc2)C1 (centres unmarked)	-0.3028	1.027	8.235	2.019
Cc1ccc(C(C(=O)NCc2n[nH]c(N)n2)N(C)C)cc1 (centres unmarked)	-2.929	-2.576	8.197	-2.244
COC(=O)CNC(=O)c1sccc1N(C)S(=O)(=O)c1ccc(Cl)cc1	11.2	-15.77	9.589	-2.673
CCC(OC)C(=O)N1CCC2(CC1)c1nc[nH]c1CCN2S(C)(=O)=O (centres unmarked)	-0.1347	-23.76	8.065	0.6106
COc1nc2c(cc1C(=O)N1C[C@@H](N)C[C@H]1C(=O)NC(C)C)CCC2	14.54	18.67	23.29	4.968
Cc1nc(CN2CCOC3(CCCC3)C2)no1	2.79	-3.084	14.29	3.415
COc1cccc(S(=O)(=O)CCNCCn2cccn2)c1	1.235	-14.32	4.444	0.6853
Cc1cccc(CN2C[C@@H]3CCCO[C@@H]3[C@H](NS(C)(=O)=O)C2)n1	0.5247	-13.48	15.09	2.539
CN1CCCc2c1nc1c(c2N)CCCC1	-1.54	-31.98	-5.495	-3.288
O=C(C1CC(=O)N(C2CC2)C1)N1CCN(CCn2cccc2)CC1 (centres unmarked)	-0.2018	-17.65	6.061	3.643
COc1ccccc1Oc1ncccc1CNC(=O)C(C)CN (centres unmarked)	0.277	-30.45	24.24	-0.9253
O=C1CCCCN1CCCNCc1cnc(C2CCC2)s1	-1.616	-8.768	1.613	1.114
CCCn1c(=O)n(CCC(=O)N(C)Cc2ccc(C)o2)c2ccccc21	0.3589	-10.59	7.143	2.23
CCn1cnnc1CNC(=O)N(C)Cc1ccc2c(c1)OCCO2	0.3912	-8.833	4.762	0.6261
CC(=O)Nc1nc(C2CCN(C(=O)c3cncs3)CC2)cs1	-	-34.94	16.49	5.214
COc1cc(C)c(CN2CCC3(CC2)[C@H](O)C[C@@H]3OCCN)cc1C	-1.632	7.763	-4.839	0.7839
N#Cc1c(Cl)nsc1N1CCN(CC2CC2)CC1	-1.183	8.734	16.95	10.98
CN1CCOC(CNC(=O)CCCOCCc2ccccc2)C1 (centres unmarked)	-1.411	0.3001	0	1.125
Cc1ccc(OCC2CCCN(c3cc(C(N)=O)ccn3)C2)cc1 (centres unmarked)	5.447	9.485	24.44	2.937
CCc1noc(CC)c1CNC(=O)Nc1cccc(C(=O)N(C)C)c1	-1.332	-0.7979	12.28	0.8851
Cc1cccc(CN2CCc3nnc(CO)n3CC2)n1	2.061	-1.366	19.51	-0.9185
CC(C)N(Cc1cccc(F)c1)Cc1nc2c(cnn2C)c(=O)[nH]1	-0.3712	-11.54	14.89	0
CN(C)C(=O)COCC1CN(Cc2ccoc2)Cc2ncn(C)c21 (centres unmarked)	-4.628	-22.25	15.28	-0.8797
CCOCCN1CCC=C(C2c3nc[nH]c3CCN2C(C)=O)C1 (centres unmarked)	0.6441	-2.965	16.39	-0.174
COCC1CN(C(=O)COc2ccc(C)cc2)Cc2cn(C)nc21 (centres unmarked)	-0.3984	-38.04	20.35	-2.467
CC(C)C(=O)N1CCCN(C(=O)NC2CCc3ccccc3C2)CC1 (centres unmarked)	0.3119	-25.38	2.632	-0.4532
CN(C(=O)c1ccc[nH]1)C1CCC(NC(=O)OC(C)(C)C)CC1 (centres unmarked)	3.16	-8.753	14.4	2.121
CC(=O)N[C@@H]1Cc2ccccc2[C@H]1Nc1cc(C2CC2)ncn1	18.52	14.94	-2.564	0.5887
Cc1nnc(NC(=O)NCc2cccnc2N(C)C)s1	0.7194	0.5719	19.18	3.536
Cc1cc2[nH]c(=O)c(=O)[nH]c2cc1S(=O)(=O)NC1CCC(C)CC1 (centres unmarked)	-3.393	-6.027	9.589	3.654
CC1c2ncc(Cn3cccn3)n2CCN1S(=O)(=O)C1CC1 (centres unmarked)	-	-7.562	15.84	2.714
CN(C)C(=O)N1Cc2nnn(C)c2C(COCc2cccnc2)C1 (centres unmarked)	-7.094	-14.5	21.62	5.796
Cc1ccc(NC(=O)c2ccc(N3CCCCC3)nn2)c(Cl)c1	4.46	10.07	4.274	-0.962
CCN1CCN(c2nc(C(C)C)nc3c(C)nn(CC)c23)CC1	0.9114	-1.743	-2.83	-6.084
Cc1nn(C)c(C)c1CC(=O)N1CCc2nnc(N(C)C)cc2C1	-4.947	-7.114	8.333	-0.2878
Cc1ccc(-n2ccnc2)c(C(=O)NCCOCC2CCCO2)c1 (centres unmarked)	-3.818	-14.49	15.15	6.107
COc1ccc2cc(C3CN(C(=O)N(C)C)CCO3)ccc2c1 (centres unmarked)	-22.09	0.5481	13.21	-1.494
O=C(Cc1ccc2c(c1)CCC2)NC1CCN(Cc2ccccc2)CC1	-0.4112	-15	17.65	3.326
Cc1ccc(S(=O)(=O)Cc2noc([C@@H]3C[C@@H](O)CN3C)n2)cc1	-1.732	7.628	11.11	5.932
CC(=O)N1CCN(C(=O)CCOc2ccc(C(C)C)cc2)CC1	0.4717	-7.837	7.2	9.471
CCn1cc(N)c(-c2nnc3n2CCC3)n1	-	-25.76	-2.062	0.6216
CN(C)CC(=O)N1CCC2(CC1)CN(Cc1cccnc1)C(=O)CO2	0.995	-48.99	8.257	1.617
CS(=O)(=O)NC1CCN(CCc2ccccc2)CC1	-0.551	-28.53	14.52	5.445
O=C(NC1(C(=O)NCC2CC2)CCCC1)C1Cc2cc(F)ccc2O1 (centres unmarked)	-3.95	-1.3	4.712	2.34
CO[C@@H]1CC[C@H]2[C@H]1OCCN2S(=O)(=O)c1cn(C)cn1	-3.066	10.16	7.895	1.437

Some entries from above, unchanged:

Cc1ccc(C(C(=O)NCc2n[nH]c(N)n2)N(C)C)cc1 (centres unmarked) read MtTrpRS: -2.929%; Pks13 thioesterase: -2.576%; LiHisRS: 8.197%; PfKRS1: -2.244%.
COC(=O)CNC(=O)c1sccc1N(C)S(=O)(=O)c1ccc(Cl)cc1 read MtTrpRS: 11.2%; Pks13 thioesterase: -15.77%; LiHisRS: 9.589%; PfKRS1: -2.673%.
CCS(=O)(=O)N1CCc2cc(C(=O)NC)c(NCC3CC3)nc2CC1 read MtTrpRS: -2.49%; Pks13 thioesterase: 23.61%; LiHisRS: 15.38%; PfKRS1: 2.942%.
CC1c2ncc(Cn3cccn3)n2CCN1S(=O)(=O)C1CC1 (centres unmarked) read Pks13 thioesterase: -7.562%; LiHisRS: 15.84%; PfKRS1: 2.714%.